Experimental data as given in patent US20210213134A1, “THIOL-BASED MULTIVALENT DRUG DELIVERY COMPOSITIONS” (ORPRO THERAPEUTICS, INC., priority 2018, published 2021).

Test: DTNB assay (percent reduction state, free sulfhydryl)
Type: physicochemical
Conditions: Table 1; for A412 nm: free SH concentration
Procedure: C35STRX-antibiotic conjugates are dissolved in PBS to the original volume before lyophilization and assayed for stability over seven days in comparison to non-conjugated reduced C35STRX. C35STRX-antibiotic conjugate concentration is measured by BCA protein assay (Pierce). […] Degradation/aggregation of C35STRX-antibiotic conjugates is determined by the percentage of C35STRX-antibiotic conjugate monomers assayed by SEC using an Agilent 1100 HPLC system and a BioBasic SEC-300 250×4.6 column (ThermoScientific) with a 40 mM Na acetate, 450 mM Na chloride 2 mM EDTA (pH 5.5) buffer at a flow rate 0.350 mL/min and detection by absorbance at 280 nm (A280).
Codon-optimized synthetic oligonucleotides encoding Lys to Ala mutants of C35STRX cloned into vector pD861 (Atum, Newark, Calif.) are expressed solubly in BL21 ΔrhaB E. coli under rhamnose induction (0.1% w/v, 26 deg C.) in APF-LB medium with 0.05% w/v glucose substrate at an O.D.600 of 0.8 in 2.8 L Fernbach shake flasks at NRC (Montreal Canada). Following cell pellet lysis (EmulsiFlex-C3, Avestin, Ottawa Canada) protein is purified from clarified extracts using anion exchange chromatography (FPLC, Akta) and 5 kDa ultrafiltration/diafiltration (UF/DF). Purified C35S(KA)TRX proteins (1 g) reduced with DTT are exchanged into lyophilization buffer prior to an additional UF/DF step under nitrogen to prevent re-oxidation. Physical characterization: C35S(KA)TRX concentration is measured by BCA Protein assay (Pierce).

| Molecule | A412 nm OD | A412 nm |
| --- | --- | --- |
| Azido-C35STRX (conjugate, UniProt P10599 2-105, looked up, variant C35S, azido group) Thioredoxin: VKQIESKTAFQEALDAAGDKLVVVDFSATWCGPSKMIKPFFHSLSEKYSNVIFLEVDVDDCQDVASECEVKCMPTFQFFKKGQKVGEFSGANKEKLEATINELV | 0.40 OD | 0.61 mM |
| C35STRX: monocysteinic active site Cys32-Ser35 variant of human thioredoxin-1, mucus-targeting scaffold (protein) MVKQIESKTAFQEALDAAGDKLVVVDFSATWCGPSKMIKPFFHSLSEKYSNVIFLEVDVDDCQDVASECEVKCMPTFQFFKKGQKVGEFSGANKEKLEATINELV | 1.22 OD | 1.85 mM |
